Data as given in PubChem BioAssay AID1671190 (National Center for Advancing Translational Sciences (NCATS), 2021).
Where “and” joins values, the source holds several entries; their conditions need not be identical. Identical values can stand only once. The campaign covered roughly 580,000 compounds. About 6,100 (1.1%) were called active. The shares of active, inactive and inconclusive entries below differ from those in the screen. Calls come from the whole dose curve; as a rule, active = well fitted inhibition curve with a large enough effect; inconclusive = small, poorly fitted or top-dose-only effect, or another doubt; inactive = no such curve, though single readings can be large or run the other way. Potencies beside an inconclusive call are fits to weak or partial responses and may not hold up.

Amino acid sequences for entries named in this document (tags omitted). A change or cut given only in a name is not applied to a line headed by its entry.
UniProt P18054: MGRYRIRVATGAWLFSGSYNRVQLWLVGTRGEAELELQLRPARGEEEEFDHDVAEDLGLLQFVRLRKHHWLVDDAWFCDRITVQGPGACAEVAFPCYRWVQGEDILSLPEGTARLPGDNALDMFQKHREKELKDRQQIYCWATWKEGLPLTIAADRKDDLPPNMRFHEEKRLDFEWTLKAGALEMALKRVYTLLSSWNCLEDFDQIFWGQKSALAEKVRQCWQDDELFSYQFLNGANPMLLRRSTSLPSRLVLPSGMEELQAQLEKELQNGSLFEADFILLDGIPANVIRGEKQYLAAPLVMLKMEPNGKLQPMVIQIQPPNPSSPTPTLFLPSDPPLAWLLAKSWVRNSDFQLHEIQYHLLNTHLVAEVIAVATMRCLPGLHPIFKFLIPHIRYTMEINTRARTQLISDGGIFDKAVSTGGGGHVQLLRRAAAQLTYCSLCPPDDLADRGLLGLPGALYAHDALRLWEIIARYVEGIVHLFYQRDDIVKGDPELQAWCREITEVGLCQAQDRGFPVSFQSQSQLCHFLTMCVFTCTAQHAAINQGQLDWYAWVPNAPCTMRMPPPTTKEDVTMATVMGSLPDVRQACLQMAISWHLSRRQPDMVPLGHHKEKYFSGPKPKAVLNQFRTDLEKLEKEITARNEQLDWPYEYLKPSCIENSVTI

Biological target: Polyunsaturated fatty acid lipoxygenase ALOX12 (Homo sapiens) (UniProt P18054)
Experiment: Primary qHTS assay for inhibitors of human arachidonate 12S-lipoxygenase (ALOX12): Round 2
Conditions: purified 12hLO, xylenol orange hydroperoxide absorbance; series mostly up to 108 µM
How it was run: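 Hydroperoxide product was detected by ferrous iron/xylenol orange as the 573 to 405 nm absorbance ratio. Arachidonic acid at 40 uM (final) was turned over for 30 min at room temperature by 150 nM human 12hLO, pH 7.0 Hepes buffer, after 15 min compound preincubation.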
Potency is the fitted concentration of half-maximal effect.

For CC1=C[C@@H](CNC(=O)CN(C)C)[C@H](C(C)C)C[C@H]1Cc1nc2ccc(C)cc2[nH]1, which Potency is on record?
Its Potency is “inactive”.

How did the Potency turn out when CNC[C@@H]1Oc2ccc(NS(=O)(=O)c3ccc(Cl)cc3)cc2C(=O)N([C@H](C)CO)C[C@@H]1C was run?
Its Potency is inconclusive: 79.4 µM [inhibitor, partial curve, poor fit].

With Cc1ccc(CN(C)C(=O)CCNC(=O)c2ccc(Cl)cc2)o1 as the molecule, how does the Potency read?
Its Potency is inconclusive: 100 µM [inhibitor, single point].

O=C1/C(=C/c2ccc([N+](=O)[O-])cc2)Oc2cc(O)ccc21 was tested. Which Potency did it give?
The Potency was “inactive”.

For COc1cccc(N2C(=O)NC(=NC3CCCCC3)C23CCN(C(=O)c2ccc(C)cc2)CC3)c1, which Potency is on record?
Its Potency is inconclusive: 112 µM [inhibitor, partial curve, poor fit].

How did the Potency turn out when CC(C)CN1CC2(CCN(C(=O)Cc3c[nH]c(=O)n(C)c3=O)CC2)CC1=O was run?
The Potency was “inactive”.

CN(C)/C=C1/C=C(c2ccccc2)OC1=O was tested. Which Potency did it give?
The Potency was inconclusive: 44.7 µM [inhibitor, partial curve, poor fit].

Which Potency does the source give for CN(C)CCOc1ccc2c(c1)C(=O)C(=Cc1ncc([N+](=O)[O-])n1C)C2 here?
The Potency was inconclusive: 39.8 µM [inhibitor, partial curve].

With Cc1cc2nc(C(C)(C)C)c(CC3CCCCC3)n2c(C)c1Br as the molecule, how does the Potency read?
The Potency was inconclusive: 112 µM [inhibitor, single point].

COc1ccc(/C=N/NC(=S)NCCc2ccccc2)cc1 was tested. Which Potency did it give?
The Potency was inconclusive: 44.7 µM [inhibitor, partial curve, poor fit].

For COc1cc(C)c(COc2ccc(C#N)cc2)cc1OC, which Potency is on record?
Its Potency is inconclusive: 63.1 µM [inhibitor, partial curve, poor fit].

For CCOc1cccc(NC(=O)C2CC(=O)N(C)C(=Nc3ccc(F)cc3)S2)c1 (centres undefined), which Potency is on record?
The Potency was inconclusive: 89.1 µM [inhibitor, partial curve, poor fit].

Which Potency does the source give for Cc1cccc(-n2nc(C)c(CCC(=O)N(C)C(C)C)c2Oc2ccc(F)cc2F)c1 here?
The Potency was inconclusive: 56.2 µM [inhibitor, partial curve].

How did the Potency turn out when Cc1nc(/C(=N/O)C(N)=O)cs1 was run?
Its Potency is inconclusive: 17.8 µM [inhibitor, full curve, poor fit].

How did the Potency turn out when NS(=O)(=O)c1ccc(N/N=C/C(Cl)=C/c2ccccc2)c([N+](=O)[O-])c1 was run?
The Potency was inconclusive: 0.0708 µM [inhibitor, full curve, poor fit].

With O=C(c1ccc(Br)s1)N(Cc1cccnc1)c1nc2ccc(F)cc2s1 as the molecule, how does the Potency read?
Its Potency is inconclusive: 141 µM [inhibitor, single point] and inconclusive: 126 µM [inhibitor, partial curve, poor fit].

With CCN1C(=O)CC(C(=O)Nc2ccc(F)cc2)SC1=Nc1cccc(OC)c1 (centres undefined) as the molecule, how does the Potency read?
Its Potency is “inactive”.

Which Potency does the source give for S=C(NC1CCCCC1)NC1CCSc2ccccc21 (centres undefined) here?
Its Potency is inconclusive: 1.12 µM [inhibitor, full curve, poor fit].

For CC1(C)CC(=O)c2sc(NC(=O)CN3CCOCC3)nc2C1, which Potency is on record?
The Potency was inconclusive: 25.1 µM [inhibitor, partial curve].

Which Potency does the source give for CCCn1nc([N+](=O)[O-])c(C(C#N)c2nc3ccccc3s2)c(Cl)c1=O (centres undefined) here?
Its Potency is inconclusive: 11.2 µM [inhibitor, full curve].

How did the Potency turn out when Cc1ccc(CNC(=S)Nc2ccc(OC(F)F)cc2C)cc1 was run?
Its Potency is inconclusive: 44.7 µM [inhibitor, partial curve, poor fit].

O=C(O)c1ccc(NCc2c(Cl)cccc2Cl)cc1 was tested. Which Potency did it give?
The Potency was “inactive”.

For Cc1cccc(Nc2nc3ccccc3nc2NS(=O)(=O)c2ccc3c(c2)OCCO3)c1, which Potency is on record?
The Potency was inconclusive: 3.98 µM [inhibitor, full curve, poor fit].

With CCOC(=O)C1=C(C)N=c2s/c(=C\c3ccc(C(=O)O)cc3)c(=O)n2C1c1ccc(F)cc1 (centres undefined) as the molecule, how does the Potency read?
Its Potency is inconclusive: 158 µM [inhibitor, single point].

CC(C)(C)c1ccc(CCC2OCC(C[N+]3(C)CCOCC3)O2)cc1 (centres undefined) was tested. Which Potency did it give?
The Potency was inconclusive: 20 µM [inhibitor, partial curve, poor fit].

How did the Potency turn out when Cn1c(=O)c(NC2CCCCC2)c2c3c(cccc31)C(=O)c1ccccc1-2 was run?
The Potency was inconclusive: 89.1 µM [inhibitor, partial curve, poor fit].

For COc1ccc(F)c(CN(C)CC2CCCN(CCc3ccc(F)cc3)C2)c1 (centres undefined), which Potency is on record?
Its Potency is inconclusive: 50.1 µM [inhibitor, partial curve, poor fit].

Which Potency does the source give for COc1cccc(CNC(=S)Nc2ccc3c(c2)c(=O)n(C)n3C)c1 here?
Its Potency is inconclusive: 56.2 µM [inhibitor, partial curve, poor fit].

How did the Potency turn out when Nn1c(Cc2ccc(F)cc2)n[nH]c1=S was run?
The Potency was inconclusive: 39.8 µM [inhibitor, partial curve, poor fit].

O=C(CN1CCN(S(=O)(=O)c2ccccc2)CC1)Nc1ccccc1C(=O)c1ccccc1 was tested. Which Potency did it give?
The Potency was “inactive”.

With Cc1ccc(NC(=O)N2CCC(N3CC4CC(C3)[C@H]3CCCC(=O)N3C4)CC2)cc1F (some centres undefined) as the molecule, how does the Potency read?
The Potency was inconclusive: 11.2 µM [inhibitor, full curve].

How did the Potency turn out when Oc1c(Br)cc(Br)c2cccnc12 was run?
The Potency was inconclusive: 5.01 µM [inhibitor, full curve].

With Cc1cc(OC(=O)c2ccccc2Cl)c([N+](=O)[O-])c(=O)[nH]1 as the molecule, how does the Potency read?
Its Potency is active: 39.8 µM.

Which Potency does the source give for COC(=O)C1=C(C)NC(=S)NC1c1ccco1 (centres undefined) here?
The Potency was inconclusive: 44.7 µM [inhibitor, partial curve].

CCn1c(=O)n(CC(=O)N(C)Cc2ccccc2)c(=O)c2ccccc21 was tested. Which Potency did it give?
The Potency was inconclusive: 14.1 µM [inhibitor, partial curve, poor fit].

Which Potency does the source give for COC(=O)COc1ccc(S(=O)(=O)NCCC2=CCCCC2)cc1C here?
The Potency was inconclusive: 50.1 µM [inhibitor, partial curve].

O=C1CSC(=S)N1/N=C/c1c(F)cccc1F was tested. Which Potency did it give?
Its Potency is active: 28.2 µM.

COc1ccc(NC(=O)c2nn(C)c(=O)c3ccccc23)cc1OC(F)F was tested. Which Potency did it give?
Its Potency is “inactive”.

Which Potency does the source give for Cn1nccc1C(=O)N1CCCC1C(=O)Nc1cccc(-n2cccn2)c1 (centres undefined) here?
Its Potency is “inactive”.

Which Potency does the source give for CC(C)NC(=O)N[C@H]1CCN(C(=O)c2cnccn2)[C@@H]1C(=O)N[C@@H](Cc1cccs1)C(N)=O here?
The Potency was “inactive”.

How did the Potency turn out when CN1CC(=O)N(C2CCCNCC2)Cc2c1ncnc2N1CCCC(CO)C1 (centres undefined) was run?
Its Potency is inconclusive: 7.08 µM [inhibitor, full curve, poor fit].

How did the Potency turn out when Cc1cc(C)n(-c2ccc(C(=O)Nc3cc(S(=O)(=O)N(C)C)ccc3Cl)cc2)n1 was run?
The Potency was inconclusive: 17.8 µM [inhibitor, partial curve, poor fit].

With COc1ccc(C(=O)N2CCC(c3n[nH]c(=O)n3-c3ccccc3)CC2)cc1F as the molecule, how does the Potency read?
The Potency was inconclusive: 22.4 µM [inhibitor, full curve, poor fit].

Cc1ccc(C)c(C(=O)N2CCCC(n3cc(-c4nc(C(C)C)no4)nn3)C2)c1 (centres undefined) was tested. Which Potency did it give?
The Potency was “inactive”.

COc1ccc(C)cc1N(CC(=O)Nc1cccnc1)S(=O)(=O)c1ccccc1 was tested. Which Potency did it give?
The Potency was inconclusive: 100 µM [inhibitor, partial curve, poor fit].

How did the Potency turn out when Cc1cccc(NS(=O)(=O)c2ccc(C(=O)NCC3(N4CCCCC4)CCCCC3)cc2)c1C was run?
The Potency was inconclusive: 50.1 µM [inhibitor, single point].

With COc1cccc(CNC(=O)c2cccs2)c1 as the molecule, how does the Potency read?
The Potency was inconclusive: 112 µM [inhibitor, partial curve, poor fit].

How did the Potency turn out when Cc1ccc(CNC(=O)C(OC(=O)c2ccco2)C(C)C)cc1 (centres undefined) was run?
Its Potency is inconclusive: 31.6 µM [inhibitor, single point].

For O=C(Nc1ccccc1N1CCOCC1)c1ccc2c(c1)OCCO2, which Potency is on record?
Its Potency is “inactive”.

How did the Potency turn out when COc1cc2[nH]c(=S)nc(NCc3cccc(Cl)c3)c2cc1OC was run?
Its Potency is “inactive”.

For CCOC(=O)CNC(=O)CSc1ncccc1-c1nc2ccccc2[nH]1, which Potency is on record?
Its Potency is inconclusive: 31.6 µM [inhibitor, partial curve, poor fit].

For CCOc1ccc(CCNC(=O)c2nccnc2C(=O)O)cc1OCC, which Potency is on record?
Its Potency is inconclusive: 4.47 µM [inhibitor, full curve, poor fit].

CCN(CCNC(=O)c1ccc(CSc2nc3ccncc3[nH]2)cc1)c1ccccc1 was tested. Which Potency did it give?
Its Potency is “inactive”.

For O=C(CSc1nc2ccccc2n1CCc1ccccc1)c1ccc(O)c(O)c1, which Potency is on record?
The Potency was active: 25.1 µM.

For CNC(=O)c1cc(-c2ccccc2F)cc2c1OCCN2Cc1cccnc1, which Potency is on record?
Its Potency is inconclusive: 25.1 µM [inhibitor, full curve, poor fit].

With CCC(=O)Nc1ccc(C(=O)CSc2nnc(-c3ccccc3F)n2CCc2ccccc2)cc1 as the molecule, how does the Potency read?
The Potency was inconclusive: 112 µM [inhibitor, partial curve, poor fit].

For O=C(Nc1ccc(Cl)c(C(F)(F)F)c1)c1ccc2ccccc2c1, which Potency is on record?
The Potency was inconclusive: 56.2 µM [inhibitor, partial curve, poor fit].

With NC(=O)c1ccccc1N/C=C/C(=O)c1cccs1 as the molecule, how does the Potency read?
The Potency was “inactive”.

Which Potency does the source give for O=C(/C=C/c1cccnc1)c1cc2ccc1CCc1ccc(cc1)CC2 here?
The Potency was “inactive”.

How did the Potency turn out when N#Cc1c(-c2ccccc2)nc(SCC(=O)N2c3ccccc3Sc3ccccc32)[nH]c1=O was run?
Its Potency is inconclusive: 56.2 µM [inhibitor, partial curve, poor fit].

With CCN(CC)C(=O)c1cc2sc3ccccc3c2s1 as the molecule, how does the Potency read?
The Potency was active: 15.8 µM.

CS(=O)(=O)Nc1cccc(-c2nc(Nc3ccc(F)cc3)c3ccccc3n2)c1 was tested. Which Potency did it give?
Its Potency is inconclusive: 44.7 µM [inhibitor, partial curve, poor fit].

COc1ccc(-c2ccc(C#N)c(SCC(=O)NCCc3ccccc3)n2)cc1OC was tested. Which Potency did it give?
The Potency was inconclusive: 22.4 µM [inhibitor, partial curve, poor fit].

How did the Potency turn out when COc1ccc(CCNC(=O)Cn2nc3n(c2=O)CCCC3)cc1OC was run?
Its Potency is “inactive”.
